# Reference: EP0362382A1, “METHOD OF STERILIZING PLANT POLLEN” (VSESOJUZNY NAUCHNO-ISSLEDOVATELSKY INST. SELSKOKHOZYAISTV. …, priority 1988, dated 1989)
# Some of these results come from one statement about several compounds together. For part of these data: At least one compound was matched to its structure with a doubt left.
# Test system: Sommerweizen
# Assay: Field test of gametocidal activity (sterilisation of anthers), spring wheat
# Assay type: in vivo
# Conditions: Botanitscheskaja 4
# From the text: (§1) Die gametozide Aktivitat der erfindungsgemäßen Sterilisationsmittel war im Feldversuch in verschiedenen bodenklimatischen Zonen mit Teilstücken von 10 m^2 Größe in drei- bis viermaliger Wiederholung festgestellt. Jedes Sterilisationsmittel wurde mindenstens 5 Jahre lang geprüft.
# (§2) Die Entwicklung der Perioden der Organogenese wird zytologisch überwacht. Die Behandlung von Pflanzen mit dem Sterilisationsmittel erfolgt am Anfang der fünften Periode der Organogenese nach Kupermann.
# (§3) Mit dem Ährenschieben verwirklicht man die Isolierung von Hauptähren und anderen Stockwerken in Pergamentbeuteln. Bei Weizen und Tritikale werden Einzelisolatoren benutzt. Bei Roggen schließt man je Ähre 5 bis 7 verschiedene nebeneinander befindliche Pflanzen unter einen gemeinsamen Isolator ein. Bei Hierse wird jede Rispe getrennt isoliert. Der Sterilitätsprozentsatz (X) für Weizen, Roggen, Tritikale und Hirse wird nach der Formel [formula] ermittelt.
# (§4) Die Kornzahl in nicht isolierten Ähren von Kontrollpflanzen wird bedingt für 100 % Ansetzen bei freier Bestäubung angenommen.
# (§5) Um zuverlässige Angaben zu erhalten, verwendet man 20 bis 25 Isolatoren jeder Wiederholung für Weizen und Tritikale, 10 .bis 15 Isolatoren jeder Wiederholung für Roggen und Hirse.
# Pflanzen des Sommerweizens Sorte Moskowskaja 35 werden in der V. Periode der Organogenese (nach Kupermann) mit 1%iger wäßriger Emulsion von δ, δ' -Thiodivaleriansäure, Natriumsalz der δ, δ' -Thiodivaleriansäure, δ, δ'--Sulfonyldivaleriansäure, Natriumsalz der d, δ' -Sulfonyldivaleriansäure, Kaliumsalz der δ, δ' -Sulfornyldivaleriansäure, Bis (die-n-butyläther) der δ, δ' -Thiodivaleriansäure, 4-Karboxybutyldezylsulfid, Bis(2-äthylhexyläther) der δ, δ' -Thiodivaleriansäure behandelt. Die Emulsion enthält 0,1 Masse% Kalziumalkylbenzolsulfonat mit 12 bis 14 Kohlenstoffatomen und 0,01 Masse% Dimethylsulfoxid. Der Verbrauch an Präparat beträgt 6 kg/ha. Als Kontrolle dienen Pflanzen, behandelt mit einem Verdünner ohne Sterilisationsmittel. Die Prüfergebnisse sind in der Tabelle 4 angegeben. […] Periode der Organogenese erhalten.
# (§6) Pflanzen des Sommerweizens Sorte Rodina werden in der V. Periode der Organogenese (nach Kupermann) mit l%iger wäßriger Emulsion von δ, δ' -Sulfornyldivaleriansäure, 4-Karboxybutyldezylsulfid, Bis(2-äthylhexyläther) der δ, δ' -Thiodivaleriansäure behandelt. Die Emulsion enthält 0,1 Masse% Kalziumalkylbenzolsulfonat mit 12 bis 14 Kohlenstoffatomen und 0,01 Masse% Tetrahydrofuran. Der Verbrauch an Präparat beträgt 6 kg/ha. Als Kontrolle dienen Pflanzen, behandelt mit einem Verdünner ohne Sterilisationsmittel. Die Prüfergebnisse sind in der Tabelle 5 angegeben. […] Periode der Organogenese erhalten.
# Pflanzen des Sommerwizens Sorte Charkowskaja 9 werden in der V. Periode der Organogenese (nach Kupermann.) mit 1%iger waßriger Emulsion von Bis(di-n-butyläther) der δ, δ' -Thiodivaleriansäure, Bis(2-äthylhexyläther) der δ, δ' -Thiodivaleriansäure behandelt. Die Emulsion enthält 0,1 Masse% Kalziumalkylbenzolsulfonat mit 12 bis 14 Kohlenstoffatomen und 0,01 Masse% Äthylenglykol. Der Verbrauch an Präparat beträgt 8 kg/ha. Als Kontrolle dienen Pflanzen, behandelt mit einem Verdünner ohne Sterilisationsmittel. Die Prüfergebnisse sind in der Tabelle 6 angegeben. […] Periode der Organogenese erhalten.
# as §6, with “Botanitscheskaja 4” for “Rodina”, “1%iger” for “l%iger”, “von Natriumsatz der” for “von”, “--Thiodivaleriansäure, Bis(di-n-butyläther) der δ, δ' -Thiodiväleriansäure,” for “-Sulfornyldivaleriansäure,”, “Dodezylsulfat.” for “Tetrahydrofuran.”, “7” for “5”
row,Molecule,Ergebnisse bei der Behandlung in der VI. Periode der Organogenese
1,"CCCCCCCCCCSCCCCC(=O)O [Beispiel 30, 4-Karboxybutyldezylsulfid]",ähnlichen Ergebnisse
2,"O=C([O-])CCCCSCCCCC(=O)[O-].[Na+].[Na+] [Beispiel 28, Natriumsatz der δ, δ' --Thiodivaleriansäure]",ähnlichen Ergebnisse
3,"CCCCC(CC)COC(=O)CCCCSCCCCC(=O)OCC(CC)CCCC (stereo not drawn) [Beispiel 31, Bis(2-äthylhexyläther) der δ, δ' -Thiodivaleriansäure]",ähnlichen Ergebnisse
4,"Bis(di-n-butyläther) der δ, δ' -Thiodiväleriansäure [Beispiel 29]",ähnlichen Ergebnisse

# Same assay, conditions: Moskowskaja 35
row,Molecule,Ergebnisse bei der Behandlung in der VI. Periode der Organogenese
1,"O=C([O-])CCCCS(=O)(=O)CCCCC(=O)[O-].[Na+].[Na+] [Beispiel 18, Natriumsalz der d, δ' -Sulfonyldivaleriansäure]",ähnlichen Ergebnisse
2,"O=C([O-])CCCCS(=O)(=O)CCCCC(=O)[O-].[K+].[K+] [Beispiel 19, Kaliumsalz der δ, δ' -Sulfornyldivaleriansäure]",ähnlichen Ergebnisse
3,"Bis (die-n-butyläther) der δ, δ' -Thiodivaleriansäure [Beispiel 20]",ähnlichen Ergebnisse
4,"O=C([O-])CCCCSCCCCC(=O)[O-].[Na+].[Na+] [Beispiel 16, Natriumsalz der δ, δ' -Thiodivaleriansäure]",ähnlichen Ergebnisse
5,"O=C(O)CCCCS(=O)(=O)CCCCC(=O)O [Beispiel 17, δ, δ'--Sulfonyldivaleriansäure]",ähnlichen Ergebnisse
6,"CCCCCCCCCCSCCCCC(=O)O [Beispiel 21, 4-Karboxybutyldezylsulfid]",ähnlichen Ergebnisse
7,"O=C(O)CCCCSCCCCC(=O)O [Beispiel 15, δ, δ' -Thiodivaleriansäure]",ähnlichen Ergebnisse

# Same assay, conditions: Sorte Charkowskaja 9
row,Molecule,Ergebnisse bei der Behandlung in der VI. Periode der Organogenese
1,"CCCCC(CC)COC(=O)CCCCSCCCCC(=O)OCC(CC)CCCC (stereo not drawn) [Beispiel 27, Bis(2-äthylhexyläther) der δ, δ' -Thiodivaleriansäure]",ähnlichen Ergebnisse
2,"Bis(di-n-butyläther) der δ, δ' -Thiodivaleriansäure [Beispiel 26]",ähnlichen Ergebnisse

# Same assay, conditions: Sorte Rodina
row,Molecule,Ergebnisse bei der Behandlung in der VI. Periode der Organogenese
1,"CCCCCCCCCCSCCCCC(=O)O [Beispiel 24, 4-Karboxybutyldezylsulfid]",ähnlichen Ergebnisse
2,"CCCCC(CC)COC(=O)CCCCSCCCCC(=O)OCC(CC)CCCC (stereo not drawn) [Beispiel 25, Bis(2-äthylhexyläther) der δ, δ' -Thiodivaleriansäure]",ähnlichen Ergebnisse
3,"O=C(O)CCCCS(=O)(=O)CCCCC(=O)O [Beispiel 23, δ, δ' -Sulfornyldivaleriansäure]",ähnlichen Ergebnisse

# Test system: tetraploidem Roggen
# Assay: Field test of gametocidal activity (sterilisation of anthers), tetraploid rye
# Assay type: in vivo
# Conditions: Sorte Belta
# From the text: as §1, §2, §3, §4, §5
# Pflanzen von tetraploidem Roggen Sorte Belta werden in der V. Periode der Organogenese (nach Kupermann) mit 1%iger wäßriger Emulsion von d, δ' -Thiodivaleriansäure, Natriumsalz der δ, δ' -Thiodivaleriansäure, δ, δ' -Sulfonylvaleriansäure, Natriumsalz der δ, δ' -Sulfonyldivaleriansäure, Kaliumsalz der d, δ' -Sulfonyldivaleriansäure, Bis(di-n-butyläther) der δ, δ' -Thiodivaleriansäure, Bis(2-Äthylhexyläther) der δ, δ'-Thiodivaleriansäure, 4-Karboxybutyldezylsulfid behandelt. Die Emulsion enthält 0,1 Masse% Kalziumalkylbenzolaulfonat und 0,01 Masse% Dimethylsulfoxid. Der Verbrauch an Präparat beträgt 6 kg/ha. Als Kontrolle dienen Pflanzen, behandelt mit einem Verdünner ohne Sterilisationsmittel. Die Prüfergebnisse sind in der Tabelle 11 angegeben. […] Periode der Organogese erhalten.
row,Molecule,Ergebnisse bei der Behandlung in der VI. Periode der Organogenese
1,"O=C(O)CCCCSCCCCC(=O)O [Beispiel 52, Natriumsalz der δ, δ' -Thiodivaleriansäure]",ähnlichen Ergebnisse

# Test system: Winterweizen
# Assay: Field test of gametocidal activity (sterilisation of anthers), winter wheat
# Assay type: in vivo
# Conditions: Gordeiforme 12303
# From the text: as §1, §2, §3, §4, §5
# Pflanzen des Winterweizens Sorte Mironowskaja 808 werden in der V. Periode der Organogenese durch Zerstäubung der 2%igen wäßrigen Emulsion der δ, δ' -Thiodivaleriansäure mit Hilfe einer Rückenspritze behandelt. Als Emulgiermittel wird 0,1 Masse% Kalziumalkylbenzalsulfonat mit 12 bis 14 Kohlenstoffatomen hinzugefügt. Als Adjuvans führt man in die Emulsion 0,01 Masse% Dimethylsulfoxid ein. Der Verbrauch an Präparat beträgt 20 kg/ha. Als Kontrolle dienen Pflanzen, behandelt mit einem Verdünner ohne Sterilisationsmittel. Die Ergebnisse sind in der Tabelle 1 angegeben. […] Periode der Organogenese erhalten.
# Der Prozeß erfolgt analog zu dem im Beispiel 1 bescnriebenen. Als Sterilisationsmittel benutzt man 2%ige wäßrige Emulsion von Natriumsalz der δ, δ'-Thiodivaleriansäure, δ, δ' -Sulfonyldivaleriansäure, Natriumsalz der δ, δ' -Sulfonyldivaleriansäure, Kaliumsalz der δ, δ'--Sulfonyldivaleriansäure, Bis(di-n-butyläther) der δ, δ'--Thiodivaleriansäure, 4-Karboxybutyldezylsulfid bzw.
# Pflanzen des Winterweizens Sorte Korall werden in der V. Periode der Organogenese (nach Kupermann) mit 2%iger wäßriger Emulsion von Bis(2-äthylhexyläther) der δ, δ' --Thiodivaleriansäure, 4-Karboxybutyldezylsulfid bzw. Bis(di--n-butyläther) der δ, δ' -Thiodivalerianqäure behandelt. Die Emulsion enthält 0,1 Masse% Kalziumalkylbenzolsulfonat mit 12 bis 14 Kohlenstoffatomen und 0,01 Masse% Dodezylsulfat. Der Verbrauch an Präparat beträgt 12 kg/ha. Als Kontrolle dienen Pflanzen, behandelt mit einem Verdünner ohne Sterilisationsmittel. Die Prüfergebnisse sind in der Tabelle 2 angegeben.
# Pflanzen des Winterweizens Gordeiforme 12303 werden in der V. Periode der Organogenese (nach Kupermann) mit 2%iger wäßriger Emulsion von 4-Karboxybutyldezylsulfid, Bis(2-äthylhexyläther) der δ, δ' -Thiodivaleriansäure, δ, δ' -Sulfonyldivaleriansäure behandelt. Die Emulsion enthält als Emulgiermittel 0,1 Masse% Kalziumalkylbenzolsulfonat mit 12 bis 14 Kohlenstoffatomen und 0,01 Masse% Dimethylformamid. Der Verbrauch an Präparat beträgt 16 kg/ha. Als Kontrolle dienen Pflanzen, behandelt mit einem Verdünner ohne Sterilisationsmittel.
row,Molecule,Ergebnisse bei der Behandlung in der VI. Periode der Organogenese
1,"O=C(O)CCCCS(=O)(=O)CCCCC(=O)O [Beispiel 14, δ, δ' -Sulfonyldivaleriansäure]",ähnlichen Ergebnisse
2,"CCCCCCCCCCSCCCCC(=O)O [Beispiel 12, 4-Karboxybutyldezylsulfid]",ähnlichen Ergebnisse
3,"CCCCC(CC)COC(=O)CCCCSCCCCC(=O)OCC(CC)CCCC (stereo not drawn) [Beispiel 13, Bis(2-äthylhexyläther) der δ, δ' -Thiodivaleriansäure]",ähnlichen Ergebnisse

# Same assay, conditions: Korall
row,Molecule,Ergebnisse bei der Behandlung in der VI. Periode der Organogenese
1,"Bis(di--n-butyläther) der δ, δ' -Thiodivalerianqäure [Beispiel 11]",ähnlichen Ergebnisse
2,"CCCCCCCCCCSCCCCC(=O)O [Beispiel 10, 4-Karboxybutyldezylsulfid]",ähnlichen Ergebnisse
3,"CCCCC(CC)COC(=O)CCCCSCCCCC(=O)OCC(CC)CCCC (stereo not drawn) [Beispiel 9, Bis(2-äthylhexyläther) der δ, δ' --Thiodivaleriansäure]",ähnlichen Ergebnisse

# Same assay, conditions: Sorte Mironowskaja 808
row,Molecule,Ergebnisse bei der Behandlung in der VI. Periode der Organogenese
1,"O=C(O)CCCCS(=O)(=O)CCCCC(=O)O [Beispiel 3, δ, δ' -Sulfonyldivaleriansäure]",ähnlichen Ergebnisse
2,"Bis(di-n-butyläther) der δ, δ'--Thiodivaleriansäure [Beispiel 6]",ähnlichen Ergebnisse
3,"O=C([O-])CCCCSCCCCC(=O)[O-].[Na+].[Na+] [Beispiel 2, Natriumsalz der δ, δ'-Thiodivaleriansäure]",ähnlichen Ergebnisse
4,"O=C([O-])CCCCS(=O)(=O)CCCCC(=O)[O-].[Na+].[Na+] [Beispiel 4, Natriumsalz der δ, δ' -Sulfonyldivaleriansäure]",ähnlichen Ergebnisse
5,"O=C([O-])CCCCS(=O)(=O)CCCCC(=O)[O-].[K+].[K+] [Beispiel 5, Kaliumsalz der δ, δ'--Sulfonyldivaleriansäure]",ähnlichen Ergebnisse
6,CCCCC(CC)COC(=O)CCCCSCCCCC(=O)OCC(CC)CCCC (stereo not drawn) [Beispiel 8],ähnlichen Ergebnisse
7,"CCCCCCCCCCSCCCCC(=O)O [Beispiel 7, 4-Karboxybutyldezylsulfid]",ähnlichen Ergebnisse
